Reference: paper PMC6709923
Results are given in words; binding and its absence hold for the method and conditions named. Binding seen in cells or lysates may run through a third protein. A yes stands for co-enrichment or nearness to the bait. Other partners may have been found.

Chains of the proteins cited; added tags and fusions are not shown.
UniProt Q9UNN5: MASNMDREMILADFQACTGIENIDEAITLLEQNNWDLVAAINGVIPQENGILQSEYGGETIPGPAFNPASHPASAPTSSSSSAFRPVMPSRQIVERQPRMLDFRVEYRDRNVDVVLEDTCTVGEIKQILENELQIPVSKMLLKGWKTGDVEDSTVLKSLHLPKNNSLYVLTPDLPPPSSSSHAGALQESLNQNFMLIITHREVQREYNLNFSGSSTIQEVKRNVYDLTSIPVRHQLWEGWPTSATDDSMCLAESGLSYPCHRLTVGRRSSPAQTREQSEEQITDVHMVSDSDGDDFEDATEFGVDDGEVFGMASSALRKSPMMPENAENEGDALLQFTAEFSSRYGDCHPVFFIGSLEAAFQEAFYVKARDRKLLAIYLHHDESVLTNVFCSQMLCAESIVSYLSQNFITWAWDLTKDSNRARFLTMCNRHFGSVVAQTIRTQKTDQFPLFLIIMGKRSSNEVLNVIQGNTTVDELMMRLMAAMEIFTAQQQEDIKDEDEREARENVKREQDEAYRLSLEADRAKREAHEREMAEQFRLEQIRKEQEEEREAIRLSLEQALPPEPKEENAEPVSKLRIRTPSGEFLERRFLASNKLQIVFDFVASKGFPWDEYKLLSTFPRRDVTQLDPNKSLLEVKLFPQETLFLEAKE

Molecular target: Fas-associated factor 1 (endogenous, HEK293) (human (endogenous in HEK293)) (UniProt Q9UNN5)
Experiment: affinity purification with mass spectrometry; large-scale cultured HEK293 cells lysed in RIPA buffer; anti-FAF1 antibody overnight at 4°C, protein A/G agarose; washed with 1% nonidet P-40; bands cut from a Coomassie-stained gel, Q-TOF

binding: binds
B1: NADPH oxidase activator 1 (endogenous, HEK293) (protein, UniProt Q86UR1 1-476)
chain: MASLGDLVRAWHLGAQAVDRGDWARALHLFSGVPAPPARLCFNAGCVHLLAGDPEAALRAFDQAVTKDTCMAVGFFQRGVANFQLARFQEALSDFWLALEQLRGHAAIDYTQLGLRFKLQAWEVLHNVASAQCQLGLWTEAASSLREAMSKWPEGSLNGLDSALDQVQRRGSLPPRQVPRGEVFRPHRWHLKHLEPVDFLGKAKVVASAIPDDQGWGVRPQQPQGPGANHDARSLIMDSPRAGTHQGPLDAETEVGADRCTSTAYQEQRPQVEQVGKQAPLSPGLPAMGGPGPGPCEDPAGAGGAGAGGSEPLVTVTVQCAFTVALRARRGADLSSLRALLGQALPHQAQLGQLSYLAPGEDGHWVPIPEEESLQRAWQDAAACPRGLQLQCRGAGGRPVLYQVVAQHSYSAQGPEDLGFRQGDTVDVLCEVDQAWLEGHCDGRIGIFPKCFVVPAGPRMSGAPGRLPRSQQGDQP
